Source: the supplement of paper PMC11732987, “Enantioselective OTUD7B fragment discovery through chemoproteomics screening and high-throughput optimisation” (Communications Chemistry, 2025)
The list shows a part of the results. The data scatter; read single values as rough.

Chains of the proteins cited; added tags and fusions are not shown. Lines headed by an entry give the natural chain unless they say otherwise; changes in a name come on top. Residues count along the entry.
UniProt O15118: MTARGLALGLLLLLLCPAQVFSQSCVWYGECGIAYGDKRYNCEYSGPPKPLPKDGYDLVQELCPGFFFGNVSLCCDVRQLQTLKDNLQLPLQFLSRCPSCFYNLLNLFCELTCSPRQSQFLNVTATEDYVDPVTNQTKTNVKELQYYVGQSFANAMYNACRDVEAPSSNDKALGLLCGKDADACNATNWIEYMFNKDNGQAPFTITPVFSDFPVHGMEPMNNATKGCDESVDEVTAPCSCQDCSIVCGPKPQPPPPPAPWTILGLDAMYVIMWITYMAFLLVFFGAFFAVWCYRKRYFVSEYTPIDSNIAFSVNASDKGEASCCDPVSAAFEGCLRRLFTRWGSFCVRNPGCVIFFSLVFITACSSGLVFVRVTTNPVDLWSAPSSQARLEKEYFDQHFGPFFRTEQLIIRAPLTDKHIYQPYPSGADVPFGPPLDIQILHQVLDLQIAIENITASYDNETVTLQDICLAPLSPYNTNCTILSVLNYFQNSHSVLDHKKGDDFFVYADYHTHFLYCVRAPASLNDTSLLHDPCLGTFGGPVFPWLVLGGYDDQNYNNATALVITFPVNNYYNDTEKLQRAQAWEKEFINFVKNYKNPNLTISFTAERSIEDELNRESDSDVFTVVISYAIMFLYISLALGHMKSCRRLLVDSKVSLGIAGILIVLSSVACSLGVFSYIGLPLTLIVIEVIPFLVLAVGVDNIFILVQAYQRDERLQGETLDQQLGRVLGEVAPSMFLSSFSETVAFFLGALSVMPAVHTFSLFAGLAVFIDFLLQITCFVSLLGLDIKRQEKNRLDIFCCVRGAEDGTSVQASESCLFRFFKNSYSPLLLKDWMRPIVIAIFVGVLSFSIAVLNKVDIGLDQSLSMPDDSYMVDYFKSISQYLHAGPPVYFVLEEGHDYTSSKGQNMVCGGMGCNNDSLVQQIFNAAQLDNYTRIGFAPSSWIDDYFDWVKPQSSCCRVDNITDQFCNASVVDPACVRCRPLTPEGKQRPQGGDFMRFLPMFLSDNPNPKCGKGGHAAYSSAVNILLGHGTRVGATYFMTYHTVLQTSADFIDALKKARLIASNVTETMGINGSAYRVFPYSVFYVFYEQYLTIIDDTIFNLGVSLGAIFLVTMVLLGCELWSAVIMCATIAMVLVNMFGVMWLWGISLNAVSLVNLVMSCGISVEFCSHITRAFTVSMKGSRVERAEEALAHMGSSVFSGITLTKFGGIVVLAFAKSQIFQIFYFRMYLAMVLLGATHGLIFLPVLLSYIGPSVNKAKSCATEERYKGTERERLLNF
UniProt Q96L73: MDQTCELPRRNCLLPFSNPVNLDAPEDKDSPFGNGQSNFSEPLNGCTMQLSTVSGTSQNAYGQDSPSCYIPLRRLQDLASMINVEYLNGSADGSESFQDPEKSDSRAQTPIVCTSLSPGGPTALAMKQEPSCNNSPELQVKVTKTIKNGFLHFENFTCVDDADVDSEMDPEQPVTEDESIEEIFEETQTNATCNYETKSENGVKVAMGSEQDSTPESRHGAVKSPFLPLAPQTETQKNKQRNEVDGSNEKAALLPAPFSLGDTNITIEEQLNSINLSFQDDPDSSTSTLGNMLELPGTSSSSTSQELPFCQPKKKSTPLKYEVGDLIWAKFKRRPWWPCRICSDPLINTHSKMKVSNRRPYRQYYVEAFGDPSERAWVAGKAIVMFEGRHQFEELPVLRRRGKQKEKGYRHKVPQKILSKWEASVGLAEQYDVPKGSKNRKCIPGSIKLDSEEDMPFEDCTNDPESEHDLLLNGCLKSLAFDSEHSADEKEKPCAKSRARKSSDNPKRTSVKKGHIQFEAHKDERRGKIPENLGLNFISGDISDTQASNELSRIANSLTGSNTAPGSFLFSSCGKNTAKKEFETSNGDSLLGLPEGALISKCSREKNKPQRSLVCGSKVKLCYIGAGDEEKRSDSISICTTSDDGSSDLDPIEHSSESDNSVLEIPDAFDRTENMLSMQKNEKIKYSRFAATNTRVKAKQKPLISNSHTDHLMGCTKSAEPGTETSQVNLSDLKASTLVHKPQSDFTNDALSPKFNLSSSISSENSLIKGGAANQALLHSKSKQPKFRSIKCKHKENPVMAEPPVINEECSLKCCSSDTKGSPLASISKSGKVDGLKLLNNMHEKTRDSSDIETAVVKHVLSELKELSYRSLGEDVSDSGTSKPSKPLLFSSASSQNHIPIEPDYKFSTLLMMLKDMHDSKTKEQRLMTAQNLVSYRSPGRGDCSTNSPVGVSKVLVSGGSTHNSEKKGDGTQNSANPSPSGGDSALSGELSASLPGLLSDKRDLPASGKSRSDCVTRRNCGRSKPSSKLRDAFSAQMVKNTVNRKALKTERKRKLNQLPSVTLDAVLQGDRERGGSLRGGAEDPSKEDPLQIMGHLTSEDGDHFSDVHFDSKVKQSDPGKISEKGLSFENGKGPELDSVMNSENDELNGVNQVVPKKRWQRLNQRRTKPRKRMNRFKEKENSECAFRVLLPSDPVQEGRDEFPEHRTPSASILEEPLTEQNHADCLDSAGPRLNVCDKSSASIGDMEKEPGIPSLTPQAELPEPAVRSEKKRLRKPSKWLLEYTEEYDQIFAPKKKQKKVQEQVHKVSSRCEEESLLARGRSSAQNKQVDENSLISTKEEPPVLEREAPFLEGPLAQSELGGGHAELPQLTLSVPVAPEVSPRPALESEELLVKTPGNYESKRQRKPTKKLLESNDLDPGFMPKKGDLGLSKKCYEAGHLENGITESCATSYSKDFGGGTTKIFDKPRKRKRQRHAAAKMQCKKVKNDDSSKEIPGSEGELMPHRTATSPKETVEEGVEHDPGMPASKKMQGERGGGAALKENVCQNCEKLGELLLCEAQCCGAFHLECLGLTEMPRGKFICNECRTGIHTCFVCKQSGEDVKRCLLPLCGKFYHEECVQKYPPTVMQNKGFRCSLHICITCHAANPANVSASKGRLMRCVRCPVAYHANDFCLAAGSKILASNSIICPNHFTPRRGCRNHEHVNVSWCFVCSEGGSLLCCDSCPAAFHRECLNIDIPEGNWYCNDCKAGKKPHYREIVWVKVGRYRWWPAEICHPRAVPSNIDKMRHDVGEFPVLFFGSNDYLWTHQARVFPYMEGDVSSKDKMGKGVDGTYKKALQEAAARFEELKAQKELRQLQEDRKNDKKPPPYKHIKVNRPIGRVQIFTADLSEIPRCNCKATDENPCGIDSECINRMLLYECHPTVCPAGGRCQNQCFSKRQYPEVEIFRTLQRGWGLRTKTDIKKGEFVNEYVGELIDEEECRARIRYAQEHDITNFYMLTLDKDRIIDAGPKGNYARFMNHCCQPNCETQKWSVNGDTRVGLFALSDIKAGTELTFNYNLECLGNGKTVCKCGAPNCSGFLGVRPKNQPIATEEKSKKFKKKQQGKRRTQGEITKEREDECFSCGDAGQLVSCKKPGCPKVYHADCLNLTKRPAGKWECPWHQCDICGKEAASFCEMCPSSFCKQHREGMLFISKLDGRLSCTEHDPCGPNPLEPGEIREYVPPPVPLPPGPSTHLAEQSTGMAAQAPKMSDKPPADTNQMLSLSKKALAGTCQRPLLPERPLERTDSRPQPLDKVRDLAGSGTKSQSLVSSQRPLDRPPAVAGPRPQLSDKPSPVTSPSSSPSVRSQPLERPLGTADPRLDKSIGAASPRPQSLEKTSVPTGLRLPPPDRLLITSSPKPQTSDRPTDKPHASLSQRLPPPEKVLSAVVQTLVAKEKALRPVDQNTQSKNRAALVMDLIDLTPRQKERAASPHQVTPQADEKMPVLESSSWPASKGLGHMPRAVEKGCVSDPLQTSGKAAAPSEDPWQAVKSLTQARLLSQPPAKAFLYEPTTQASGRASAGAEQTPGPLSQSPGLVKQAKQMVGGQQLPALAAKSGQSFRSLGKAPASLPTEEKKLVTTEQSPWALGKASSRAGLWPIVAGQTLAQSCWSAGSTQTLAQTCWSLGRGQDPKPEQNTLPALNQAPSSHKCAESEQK
UniProt O15381, 384-403: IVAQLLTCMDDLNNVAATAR
UniProt O60502: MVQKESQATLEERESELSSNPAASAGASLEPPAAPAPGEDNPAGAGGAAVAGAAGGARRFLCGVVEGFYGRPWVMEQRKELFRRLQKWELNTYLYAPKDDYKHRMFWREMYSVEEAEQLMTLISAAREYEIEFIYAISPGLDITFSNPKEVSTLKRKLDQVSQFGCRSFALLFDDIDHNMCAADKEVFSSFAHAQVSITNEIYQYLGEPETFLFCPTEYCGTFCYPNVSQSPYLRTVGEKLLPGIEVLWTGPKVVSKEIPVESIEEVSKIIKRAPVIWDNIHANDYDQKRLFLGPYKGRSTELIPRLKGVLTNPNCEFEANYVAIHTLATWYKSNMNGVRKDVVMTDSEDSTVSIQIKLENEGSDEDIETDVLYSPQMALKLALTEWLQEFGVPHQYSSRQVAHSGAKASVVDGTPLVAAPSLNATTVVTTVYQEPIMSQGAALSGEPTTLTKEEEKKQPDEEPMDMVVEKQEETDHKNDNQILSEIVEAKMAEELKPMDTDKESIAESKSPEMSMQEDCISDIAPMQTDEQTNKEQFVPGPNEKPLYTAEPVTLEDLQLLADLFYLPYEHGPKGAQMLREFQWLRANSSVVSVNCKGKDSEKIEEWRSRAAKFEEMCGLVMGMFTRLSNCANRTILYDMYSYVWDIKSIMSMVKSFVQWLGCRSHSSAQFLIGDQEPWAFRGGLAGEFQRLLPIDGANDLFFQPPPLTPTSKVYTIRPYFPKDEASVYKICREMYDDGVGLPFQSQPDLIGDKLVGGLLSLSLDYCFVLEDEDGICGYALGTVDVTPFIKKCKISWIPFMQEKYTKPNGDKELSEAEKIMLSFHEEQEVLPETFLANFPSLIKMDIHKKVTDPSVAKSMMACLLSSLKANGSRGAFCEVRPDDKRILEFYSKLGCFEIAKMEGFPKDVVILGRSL
UniProt O75607: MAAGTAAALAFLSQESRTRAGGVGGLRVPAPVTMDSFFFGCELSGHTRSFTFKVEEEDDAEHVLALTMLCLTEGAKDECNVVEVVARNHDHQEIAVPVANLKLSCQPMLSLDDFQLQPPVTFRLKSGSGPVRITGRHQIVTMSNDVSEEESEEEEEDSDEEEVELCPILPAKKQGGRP
UniProt P49790, 556-586: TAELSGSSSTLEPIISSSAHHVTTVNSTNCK
UniProt P49790, whole entry, looked up: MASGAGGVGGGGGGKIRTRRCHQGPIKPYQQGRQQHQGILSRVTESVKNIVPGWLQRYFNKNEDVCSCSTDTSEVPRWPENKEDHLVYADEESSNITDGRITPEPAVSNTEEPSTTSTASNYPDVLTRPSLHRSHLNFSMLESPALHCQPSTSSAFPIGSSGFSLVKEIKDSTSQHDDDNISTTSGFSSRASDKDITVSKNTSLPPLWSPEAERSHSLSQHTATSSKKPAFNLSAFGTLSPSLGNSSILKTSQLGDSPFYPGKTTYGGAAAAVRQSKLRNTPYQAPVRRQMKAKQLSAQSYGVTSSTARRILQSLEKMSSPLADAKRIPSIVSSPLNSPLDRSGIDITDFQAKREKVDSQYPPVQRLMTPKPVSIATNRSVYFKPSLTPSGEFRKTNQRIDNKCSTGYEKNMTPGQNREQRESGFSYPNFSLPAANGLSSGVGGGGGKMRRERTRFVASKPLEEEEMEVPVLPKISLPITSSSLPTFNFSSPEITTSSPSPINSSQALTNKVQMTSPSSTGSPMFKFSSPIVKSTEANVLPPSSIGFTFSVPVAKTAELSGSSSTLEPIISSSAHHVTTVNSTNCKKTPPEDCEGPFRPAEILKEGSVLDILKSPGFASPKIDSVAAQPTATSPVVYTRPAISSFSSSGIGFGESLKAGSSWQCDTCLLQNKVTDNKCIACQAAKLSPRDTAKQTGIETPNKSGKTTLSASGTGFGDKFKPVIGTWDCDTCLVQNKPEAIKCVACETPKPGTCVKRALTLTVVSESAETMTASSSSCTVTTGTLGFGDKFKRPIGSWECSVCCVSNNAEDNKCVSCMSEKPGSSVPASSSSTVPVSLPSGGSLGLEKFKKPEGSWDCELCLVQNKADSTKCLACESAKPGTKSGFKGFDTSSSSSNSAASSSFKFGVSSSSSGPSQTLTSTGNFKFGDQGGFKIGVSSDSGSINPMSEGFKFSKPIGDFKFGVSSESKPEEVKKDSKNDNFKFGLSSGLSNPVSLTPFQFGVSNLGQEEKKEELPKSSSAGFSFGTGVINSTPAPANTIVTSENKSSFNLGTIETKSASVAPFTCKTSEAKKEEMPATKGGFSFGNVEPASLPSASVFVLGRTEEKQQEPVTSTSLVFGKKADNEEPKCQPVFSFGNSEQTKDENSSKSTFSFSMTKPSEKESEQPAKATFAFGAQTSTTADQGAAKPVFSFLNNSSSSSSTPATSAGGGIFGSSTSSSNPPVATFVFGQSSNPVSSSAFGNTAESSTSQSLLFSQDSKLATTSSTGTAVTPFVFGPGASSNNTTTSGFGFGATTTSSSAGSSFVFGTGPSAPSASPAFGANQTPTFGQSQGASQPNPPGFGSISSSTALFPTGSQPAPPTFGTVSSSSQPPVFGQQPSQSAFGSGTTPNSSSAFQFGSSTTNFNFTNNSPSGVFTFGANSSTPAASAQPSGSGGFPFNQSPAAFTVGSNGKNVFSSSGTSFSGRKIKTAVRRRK

Compound: ClCC(=O)N[C@@H]1CCCc2ccccc12
Test: log2 mean competition ratio of IA-DTB cysteine labelling (DMSO/compound) (log2 ratio); higher = stronger cysteine engagement by compound
Conditions: 50 µM; treatment time: 4 h; cell line lysate: HEK293T
Experimental: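 IA-DTB competitive cysteine chemoproteomics in HEK293T RIPA lysate. Lysates were treated with compound 29 or 30 at 50 or 200 µM for 4 h, then IA-DTB (500 µM, 1 h), trypsin-digested, NeutrAvidin-enriched and analysed by diaPASEF. Competition ratio = intensity DMSO / intensity compound (n=4 treated, n=64 DMSO); binding: mean log2 CR ≥ 1 and p ≤ 0.05 plus QC filters. Target is the cysteine site.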

Target	log2 mean competition ratio
ODR4 C141 (UniProt Q5SWX8)	0.518
NUDT9 C347 (UniProt Q9BW91)	-0.237
NSRP1 C232 (UniProt Q9H0G5)	-0.027
NUP107 C621 (UniProt P57740)	0.656
NPC1 C1261 (UniProt O15118)	-0.0722
NT5C3B C56 (UniProt Q969T7)	0.168
NRDC C1027 (UniProt O43847)	0.0909
NUP160 C605 (UniProt Q12769)	-0.087
NUDT8 C5 (UniProt Q8WV74)	0.0739
NSD1 C2508 (UniProt Q96L73)	-0.131
NSD1 C944 (UniProt Q96L73)	0.0196
NVL C391 (UniProt O15381)	0.0856
OGA C896 (UniProt O60502)	0.451
NXT2;NXT1 C133;(C132)	-0.08
NPM3 C79 (UniProt O75607)	-0.0447
NT5C2 C181	0.0589
NUP153 C585 (UniProt P49790)	-0.0235
NVL C803 (UniProt O15381)	0.00341
NUP153 C1065 (UniProt P49790)	0.0196
NUP93 C328 (UniProt Q8N1F7)	0.0132

Same assay, conditions: 200 µM; treatment time: 4 h; cell line lysate: HEK293T

Target	log2 mean competition ratio
ODR4 C141 (UniProt Q5SWX8)	-0.211
NUDT9 C347 (UniProt Q9BW91)	0.151
NSRP1 C232 (UniProt Q9H0G5)	-0.437
NUP107 C621 (UniProt P57740)	-0.347
NPC1 C1261 (UniProt O15118)	0.0778
NT5C3B C56 (UniProt Q969T7)	0.0363
NRDC C1027 (UniProt O43847)	-0.302
NUP160 C605 (UniProt Q12769)	-0.25
NUDT8 C5 (UniProt Q8WV74)	-0.344
NSD1 C2508 (UniProt Q96L73)	0.00924
NSD1 C944 (UniProt Q96L73)	-0.157
NVL C391 (UniProt O15381)	0.204
OGA C896 (UniProt O60502)	0.109
NXT2;NXT1 C133;(C132)	0.191
NPM3 C79 (UniProt O75607)	-0.157
NT5C2 C181	-0.214
NUP153 C585 (UniProt P49790)	-0.0329
NVL C803 (UniProt O15381)	0.0483
NUP153 C1065 (UniProt P49790)	-0.235
NUP93 C328 (UniProt Q8N1F7)	-0.148
